Measurements reported in patent US20210206875A1, “ERBB-2 TARGETING AGENT AND A BISPECIFIC ANTIBODY WITH ANTIGEN-BINDING SITES THAT BIND AN EPITOPE ON AN EXTRACELLULAR PART OF ERB-2 AND ERBB-3, FOR TREATMENT OF AN INDIVIDUAL WITH AN ERBB-2, ERBB-2/ERBB-3 POSITIVE TUMOUR” (Merus N.V., priority 2017, published 2021).
For at least one compound, name, drawing or mass did not settle the structure.

Test system: HER2 overexpressing cells (SK-BR-3, BT-474, N87)
Experiment: Drug combinations with PB4188 in vitro (isobolograms)
Format: cell-based, human
Conditions: in the presence of HRG, matrigel or HRG stress concentrations
Procedure: Moreover, combination with chemotherapeutic drugs and cyclin inhibitors were tested. Combinations were tested on HER2 overexpressing cells growing in the presence of HRG in matrigel (SK-BR-3 and BT-474) or in the presence of HRG stress concentrations (N87 and SK-BR-3 as described in proliferation assays). The inhibitory effect of drug combinations was tested by imaging or by measuring proliferation using Alamar Blue as described herein before. […] The extent of growth inhibition obtained with each combination was calculated. […] The inhibition values of the combination experiments were used by CHALICE™ Analyzer software to generate the isobolograms.

CN1CCN(CCOc2cc(OC3CCOCC3)c3c(Nc4c(Cl)ccc5c4OCO5)ncnc3c2)CC1 [saracatinib]
drug combination with PB4188 (isobologram analysis): synergistic
